This passage reports binding signal results from PMC7862700.

What all share (assay): DAPPL (digital affinity profiling via proximity ligation, sequencing)
Common to all, as to details: 10 mM Tris-HCl pH 7.5, 50 mM NaCl, 1 mM DTT, 4% glycerol, room temperature, 30 min; GST-TFs on glutathione beads, 16-mer random dsDNA library, 0.1% …; high values mean tight binding; double strand, one strand shown; scale: fold enrichment (6-mer frequency, TF over GST control)

For one experiment, the target named is T1, ELK4 (UniProt P28324-2).
T1 sequence: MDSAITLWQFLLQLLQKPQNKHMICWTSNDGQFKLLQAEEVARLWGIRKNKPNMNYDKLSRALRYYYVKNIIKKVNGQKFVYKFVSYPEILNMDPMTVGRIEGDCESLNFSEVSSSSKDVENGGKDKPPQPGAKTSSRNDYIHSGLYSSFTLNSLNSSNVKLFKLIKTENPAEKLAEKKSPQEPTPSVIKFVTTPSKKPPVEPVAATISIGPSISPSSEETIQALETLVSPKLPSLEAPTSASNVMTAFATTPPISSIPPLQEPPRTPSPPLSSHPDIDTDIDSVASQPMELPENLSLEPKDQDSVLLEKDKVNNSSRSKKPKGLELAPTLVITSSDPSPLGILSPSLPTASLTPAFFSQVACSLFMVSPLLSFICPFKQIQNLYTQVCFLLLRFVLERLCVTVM

The target in another experiment is T2, ETV4 (UniProt P43268).
T2 sequence: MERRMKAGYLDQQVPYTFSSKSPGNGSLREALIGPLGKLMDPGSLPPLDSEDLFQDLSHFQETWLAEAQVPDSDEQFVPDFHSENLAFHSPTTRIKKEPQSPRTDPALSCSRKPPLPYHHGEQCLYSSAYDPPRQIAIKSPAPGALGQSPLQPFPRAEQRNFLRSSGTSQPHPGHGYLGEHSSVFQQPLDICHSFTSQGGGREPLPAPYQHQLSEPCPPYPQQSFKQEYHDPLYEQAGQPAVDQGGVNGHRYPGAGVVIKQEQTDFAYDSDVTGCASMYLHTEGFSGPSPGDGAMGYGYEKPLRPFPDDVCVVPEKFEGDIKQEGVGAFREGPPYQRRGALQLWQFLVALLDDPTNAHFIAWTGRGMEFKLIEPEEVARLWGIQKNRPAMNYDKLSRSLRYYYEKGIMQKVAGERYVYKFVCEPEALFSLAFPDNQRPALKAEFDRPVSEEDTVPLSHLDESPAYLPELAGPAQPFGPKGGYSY

The target in another experiment is T3, ERG (UniProt P11308).
T3 sequence: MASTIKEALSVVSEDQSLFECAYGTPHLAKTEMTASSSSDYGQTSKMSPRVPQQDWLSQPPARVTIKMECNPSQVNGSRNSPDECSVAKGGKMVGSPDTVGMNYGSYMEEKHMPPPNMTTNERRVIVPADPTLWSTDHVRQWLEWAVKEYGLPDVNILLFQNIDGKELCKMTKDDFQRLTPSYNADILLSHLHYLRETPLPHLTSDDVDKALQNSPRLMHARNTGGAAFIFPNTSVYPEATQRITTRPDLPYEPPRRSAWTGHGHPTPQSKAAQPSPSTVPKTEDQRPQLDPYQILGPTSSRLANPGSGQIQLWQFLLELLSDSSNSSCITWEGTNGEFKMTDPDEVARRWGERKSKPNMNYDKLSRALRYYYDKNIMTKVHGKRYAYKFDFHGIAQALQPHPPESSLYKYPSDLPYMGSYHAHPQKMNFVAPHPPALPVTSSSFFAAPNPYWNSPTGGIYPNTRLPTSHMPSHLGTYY

Only a part is listed here, and it is no random draw. For some of these results: At the low end of the ranking the order means little. This is one part of the list. For some of these results: Construct or isoform of the protein are uncertain.

Turning to CGTCAA, the values for the binding signal in the experiment with ELK4 and with ETV4 were 1.12 and 1.08, respectively.
For CAACCG, in that order: 0.974 and 1.15.
The matching figures for GACTCC: 1.12 and 1.26.
As for CCTGTA, the binding signal with ELK4 was 1.16; in the experiment with ETV4, 1.2.
TCAAAG: the binding signal came out at 1.21 with ELK4 and 1.17 with ETV4.
TTGGGC: the binding signal with ERG worked out at 1.07; in the experiment with ELK4 it was 1.05; with ETV4 it was 1.12.
